Results published in article PMC7642295.
These are yes or no findings as the source states them, for the method shown. In cells and extracts the contact can be indirect. A yes stands for co-enrichment or nearness to the bait. Other partners may have been found.

The chains behind the UniProt entries cited, without tags or fusion partners. Where a name states a change or a piece, a line headed by the entry shows the natural chain unless it says otherwise. A line that says so, or that is headed by a name, gives the form on record, which may keep a tag or linker. Residues count along the entry.
UniProt Q9Y238: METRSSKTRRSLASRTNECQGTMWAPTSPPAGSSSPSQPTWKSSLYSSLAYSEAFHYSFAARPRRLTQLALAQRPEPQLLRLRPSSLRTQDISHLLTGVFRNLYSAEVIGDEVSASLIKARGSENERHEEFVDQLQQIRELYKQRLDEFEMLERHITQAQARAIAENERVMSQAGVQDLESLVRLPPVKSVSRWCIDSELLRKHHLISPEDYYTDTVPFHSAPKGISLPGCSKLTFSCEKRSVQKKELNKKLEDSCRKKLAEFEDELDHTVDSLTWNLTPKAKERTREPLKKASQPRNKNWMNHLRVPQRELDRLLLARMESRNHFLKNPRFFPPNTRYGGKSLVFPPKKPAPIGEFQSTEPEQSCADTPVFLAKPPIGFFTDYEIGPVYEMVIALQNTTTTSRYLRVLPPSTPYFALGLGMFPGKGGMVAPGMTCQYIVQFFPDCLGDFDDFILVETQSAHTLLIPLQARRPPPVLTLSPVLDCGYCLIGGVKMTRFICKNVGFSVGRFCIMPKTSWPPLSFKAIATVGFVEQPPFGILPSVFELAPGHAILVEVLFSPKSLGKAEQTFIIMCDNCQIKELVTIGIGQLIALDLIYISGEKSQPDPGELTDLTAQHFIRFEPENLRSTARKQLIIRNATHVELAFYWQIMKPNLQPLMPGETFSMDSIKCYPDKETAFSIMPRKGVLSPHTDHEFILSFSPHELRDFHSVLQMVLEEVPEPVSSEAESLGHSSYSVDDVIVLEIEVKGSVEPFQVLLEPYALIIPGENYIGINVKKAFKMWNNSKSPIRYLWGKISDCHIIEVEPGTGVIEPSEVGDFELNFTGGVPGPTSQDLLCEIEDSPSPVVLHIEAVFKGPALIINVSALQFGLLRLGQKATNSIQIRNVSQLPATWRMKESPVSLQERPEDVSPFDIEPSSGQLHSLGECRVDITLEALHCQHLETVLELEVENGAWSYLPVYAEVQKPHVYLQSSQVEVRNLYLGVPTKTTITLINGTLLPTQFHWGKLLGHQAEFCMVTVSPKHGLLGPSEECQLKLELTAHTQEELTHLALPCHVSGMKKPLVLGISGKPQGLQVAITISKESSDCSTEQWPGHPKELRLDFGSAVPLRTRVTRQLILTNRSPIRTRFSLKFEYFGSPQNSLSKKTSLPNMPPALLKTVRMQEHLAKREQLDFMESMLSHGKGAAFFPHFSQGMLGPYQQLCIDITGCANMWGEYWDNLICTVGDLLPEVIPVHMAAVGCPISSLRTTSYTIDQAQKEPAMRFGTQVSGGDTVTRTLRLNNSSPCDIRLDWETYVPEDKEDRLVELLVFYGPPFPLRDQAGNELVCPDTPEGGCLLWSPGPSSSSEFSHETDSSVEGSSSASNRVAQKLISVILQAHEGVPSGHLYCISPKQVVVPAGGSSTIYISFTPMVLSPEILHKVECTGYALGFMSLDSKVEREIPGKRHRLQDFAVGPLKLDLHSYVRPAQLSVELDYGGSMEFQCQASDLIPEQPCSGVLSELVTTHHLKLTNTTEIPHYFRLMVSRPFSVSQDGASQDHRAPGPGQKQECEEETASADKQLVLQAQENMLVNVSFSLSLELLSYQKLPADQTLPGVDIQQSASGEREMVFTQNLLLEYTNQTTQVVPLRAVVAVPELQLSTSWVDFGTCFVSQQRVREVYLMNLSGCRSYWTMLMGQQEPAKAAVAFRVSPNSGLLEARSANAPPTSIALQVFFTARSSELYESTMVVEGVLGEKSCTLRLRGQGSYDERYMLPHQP
UniProt P04406, residues 43-335: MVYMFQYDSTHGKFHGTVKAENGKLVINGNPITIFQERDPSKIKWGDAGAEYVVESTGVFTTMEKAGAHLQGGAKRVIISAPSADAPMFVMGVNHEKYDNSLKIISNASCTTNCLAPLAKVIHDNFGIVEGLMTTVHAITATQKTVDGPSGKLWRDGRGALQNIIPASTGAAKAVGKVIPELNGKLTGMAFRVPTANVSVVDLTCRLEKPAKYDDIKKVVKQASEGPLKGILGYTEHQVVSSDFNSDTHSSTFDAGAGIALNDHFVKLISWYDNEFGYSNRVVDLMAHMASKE
ruvB-like 1 isoform 2 (Q9Y265-2, form named): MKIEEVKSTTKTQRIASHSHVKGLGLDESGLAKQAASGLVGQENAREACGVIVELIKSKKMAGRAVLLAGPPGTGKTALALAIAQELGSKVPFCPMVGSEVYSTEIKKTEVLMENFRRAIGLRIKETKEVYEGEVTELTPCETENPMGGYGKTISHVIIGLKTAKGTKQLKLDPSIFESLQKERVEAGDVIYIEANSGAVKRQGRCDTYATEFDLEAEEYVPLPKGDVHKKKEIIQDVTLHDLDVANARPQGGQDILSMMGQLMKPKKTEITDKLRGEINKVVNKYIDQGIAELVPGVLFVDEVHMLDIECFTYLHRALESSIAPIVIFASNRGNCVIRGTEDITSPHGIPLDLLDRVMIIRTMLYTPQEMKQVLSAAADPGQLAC
UniProt Q71U36, residues 36-451: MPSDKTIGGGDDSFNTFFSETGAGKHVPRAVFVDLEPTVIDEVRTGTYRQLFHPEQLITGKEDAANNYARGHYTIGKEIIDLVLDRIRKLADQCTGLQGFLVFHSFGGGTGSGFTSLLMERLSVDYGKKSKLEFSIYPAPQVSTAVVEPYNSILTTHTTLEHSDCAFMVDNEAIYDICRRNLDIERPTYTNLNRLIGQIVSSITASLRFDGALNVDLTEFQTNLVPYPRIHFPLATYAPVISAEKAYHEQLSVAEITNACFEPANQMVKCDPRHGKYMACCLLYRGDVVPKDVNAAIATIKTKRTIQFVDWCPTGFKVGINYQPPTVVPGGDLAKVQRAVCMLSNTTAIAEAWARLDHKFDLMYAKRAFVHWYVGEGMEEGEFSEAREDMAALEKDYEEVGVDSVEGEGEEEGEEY
UniProt Q9BUF5: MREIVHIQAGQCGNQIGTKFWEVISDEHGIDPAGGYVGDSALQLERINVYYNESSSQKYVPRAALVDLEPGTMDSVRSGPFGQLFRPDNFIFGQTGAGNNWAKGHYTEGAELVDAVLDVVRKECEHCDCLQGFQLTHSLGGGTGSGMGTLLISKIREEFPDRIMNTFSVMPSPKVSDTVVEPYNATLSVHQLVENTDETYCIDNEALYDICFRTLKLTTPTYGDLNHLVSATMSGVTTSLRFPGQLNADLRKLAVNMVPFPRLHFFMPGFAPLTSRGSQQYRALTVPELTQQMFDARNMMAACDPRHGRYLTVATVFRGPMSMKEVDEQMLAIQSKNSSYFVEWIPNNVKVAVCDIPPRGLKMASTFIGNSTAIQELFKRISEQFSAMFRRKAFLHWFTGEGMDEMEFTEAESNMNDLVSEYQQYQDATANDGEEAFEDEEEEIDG
UniProt Q9BVA1: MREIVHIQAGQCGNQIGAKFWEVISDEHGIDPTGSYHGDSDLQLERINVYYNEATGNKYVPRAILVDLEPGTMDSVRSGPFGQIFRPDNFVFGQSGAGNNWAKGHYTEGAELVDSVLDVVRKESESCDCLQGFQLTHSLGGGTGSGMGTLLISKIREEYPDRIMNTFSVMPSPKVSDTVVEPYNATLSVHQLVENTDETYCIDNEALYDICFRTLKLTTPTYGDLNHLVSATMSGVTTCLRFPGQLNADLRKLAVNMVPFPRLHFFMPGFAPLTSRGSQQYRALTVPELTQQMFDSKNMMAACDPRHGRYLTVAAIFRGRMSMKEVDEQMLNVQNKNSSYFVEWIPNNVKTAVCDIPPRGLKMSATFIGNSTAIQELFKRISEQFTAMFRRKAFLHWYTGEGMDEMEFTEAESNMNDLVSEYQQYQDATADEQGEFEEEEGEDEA
UniProt P07437: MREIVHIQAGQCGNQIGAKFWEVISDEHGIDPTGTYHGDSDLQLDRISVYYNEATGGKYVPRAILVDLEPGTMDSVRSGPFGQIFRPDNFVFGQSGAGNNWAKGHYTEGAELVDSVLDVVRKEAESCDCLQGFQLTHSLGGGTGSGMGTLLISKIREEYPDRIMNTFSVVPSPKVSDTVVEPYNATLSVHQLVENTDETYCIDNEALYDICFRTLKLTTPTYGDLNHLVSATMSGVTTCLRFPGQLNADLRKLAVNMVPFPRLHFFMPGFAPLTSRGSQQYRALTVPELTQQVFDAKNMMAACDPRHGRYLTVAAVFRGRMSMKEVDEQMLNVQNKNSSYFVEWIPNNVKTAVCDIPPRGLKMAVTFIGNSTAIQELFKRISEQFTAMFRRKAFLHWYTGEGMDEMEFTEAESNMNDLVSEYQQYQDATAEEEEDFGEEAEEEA
UniProt P68371: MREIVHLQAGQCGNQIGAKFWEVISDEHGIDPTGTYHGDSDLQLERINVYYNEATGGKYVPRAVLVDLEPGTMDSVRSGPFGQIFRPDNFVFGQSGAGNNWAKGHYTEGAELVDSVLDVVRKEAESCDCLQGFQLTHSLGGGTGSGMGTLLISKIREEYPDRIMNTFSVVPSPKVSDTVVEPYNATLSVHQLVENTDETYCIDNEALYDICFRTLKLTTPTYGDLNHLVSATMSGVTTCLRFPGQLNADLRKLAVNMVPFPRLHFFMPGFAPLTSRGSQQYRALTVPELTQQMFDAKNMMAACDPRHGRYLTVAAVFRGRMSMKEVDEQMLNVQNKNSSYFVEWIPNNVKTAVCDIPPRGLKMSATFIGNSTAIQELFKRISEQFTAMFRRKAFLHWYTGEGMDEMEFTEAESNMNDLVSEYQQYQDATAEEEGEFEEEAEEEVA

B1: T-complex protein 1 subunit beta isoform 2 (protein, UniProt P78371-2 1-488)
chain: MDKILLSSGRDASLMVTNDGATILKNIGVDNPAAKVLVDMSRVQDDEVGDGTTSVTVLAAELLREAESLIAKKIHPQTIIAGWREATKAAREALLSSAVDHGSDEVKFRQDLMNIAGTTLSSKLLTHHKDHFTKLAVEAVLRLKGSGNLEAIHIIKKLGGSLADSYLDEGFLLDKKIGVNQPKRIENAKILIANTGMDTDKIKIFGSRVRVDSTAKVAEIEHAEKEKMKEKVERILKHGINCFINRQLIYNYPEQLFGAAGVMAIEHADFAGVERLALVTGGEIASTFDHPELVKLGSCKLIEEVMIGEDKLIHFSGVALGEACTIVLRGATQQILDEAERSLHDALCVLAQTVKDSRTVYGGGCSEMLMAHAVTQLANRTPGKEAVAMESYAKALRMLPTIIADNAGYDSADLVAQLRAAHSEGNTTAGLDMREGTIGDMAILGITESFQVKRQVLLSAAEAAEVILRVDNIIKAAPRKRVPDHHPC
B2: T-complex protein 1 subunit delta isoform a (protein, UniProt P50991-1 1-539)
chain: MPENVAPRSGATAGAAGGRGKGAYQDRDKPAQIRFSNISAAKAVADAIRTSLGPKGMDKMIQDGKGDVTITNDGATILKQMQVLHPAARMLVELSKAQDIEAGDGTTSVVIIAGSLLDSCTKLLQKGIHPTIISESFQKALEKGIEILTDMSRPVELSDRETLLNSATTSLNSKVVSQYSSLLSPMSVNAVMKVIDPATATSVDLRDIKIVKKLGGTIDDCELVEGLVLTQKVSNSGITRVEKAKIGLIQFCLSAPKTDMDNQIVVSDYAQMDRVLREERAYILNLVKQIKKTGCNVLLIQKSILRDALSDLALHFLNKMKIMVIKDIEREDIEFICKTIGTKPVAHIDQFTADMLGSAELAEEVNLNGSGKLLKITGCASPGKTVTIVVRGSNKLVIEEAERSIHDALCVIRCLVKKRALIAGGGAPEIELALRLTEYSRTLSGMESYCVRAFADAMEVIPSTLAENAGLNPISTVTELRNRHAQGEKTAGINVRKGGISNILEELVVQPLLVSVSALTLATETVRSILKIDDVVNTR
B3: T-complex protein 1 subunit gamma isoform c (protein, UniProt P49368-2 1-507)
chain: MMGHRPVLVLSQNTKRESGRKVQSGNINAAKIQVQHPAAKSMIEISRTQDEEVGDGTTSVIILAGEMLSVAEHFLEQQMHPTVVISAYRKALDDMISTLKKISIPVDISDSDMMLNIINSSITTKAISRWSSLACNIALDAVKMVQFEENGRKEIDIKKYARVEKIPGGIIEDSCVLRGVMINKDVTHPRMRRYIKNPRIVLLDSSLEYKKGESQTDIEITREEDFTRILQMEEEYIQQLCEDIIQLKPDVVITEKGISDLAQHYLMRANITAIRRVRKTDNNRIARACGARIVSRPEELREDDVGTGAGLLEIKKIGDEYFTFITDCKDPKACTILLRGASKEILSEVERNLQDAMQVCRNVLLDPQLVPGGGASEMAVAHALTEKSKAMTGVEQWPYRAVAQALEVIPRTLIQNCGASTIRLLTSLRAKHTQENCETWGVNGETGTLVDMKELGIWEPLAVKLQTYKTAVETAVLLLRIDDIVSGHKKKGDDQSRQGGAPDAGQE
B4: Protein phosphatase 1B isoform 1 (enzyme, UniProt O75688-1 1-479)
chain: MGAFLDKPKTEKHNAHGAGNGLRYGLSSMQGWRVEMEDAHTAVVGIPHGLEDWSFFAVYDGHAGSRVANYCSTHLLEHITTNEDFRAAGKSGSALELSVENVKNGIRTGFLKIDEYMRNFSDLRNGMDRSGSTAVGVMISPKHIYFINCGDSRAVLYRNGQVCFSTQDHKPCNPREKERIQNAGGSVMIQRVNGSLAVSRALGDYDYKCVDGKGPTEQLVSPEPEVYEILRAEEDEFIILACDGIWDVMSNEELCEYVKSRLEVSDDLENVCNWVVDTCLHKGSRDNMSIVLVCFSNAPKVSDEAVKKDSELDKHLESRVEEIMEKSGEEGMPDLAHVMRILSAENIPNLPPGGGLAGKRNVIEAVYSRLNPHRESDGASDEAEESGSQGKLVEALRQMRINHRGNYRQLLEEMLTSYRLAKVEGEESPAEPAATATSSNSDAGNPVTMQESHTESESGLAELDSSNEDAGTKMSGEKI

target: 3 × FLAG-tagged human DLEC1 (deleted in lung and esophageal cancer 1) (human) (UniProt Q9Y238); test: affinity purification with mass spectrometry; 3 × FLAG-hDLEC1 or empty vector transiently expressed in HEK293F; 20 mg lysate in 1% Triton X-100 buffer with anti-FLAG antibody agarose beads overnight at 4 °C; bands enriched on the CBB-stained gel cut out and identified by LC-MS/MS

binding, binds:
Glyceraldehyde-3-phosphate dehydrogenase isoform 2 (from UniProt P04406-2 1-293) (enzyme)
T-complex protein 1 subunit theta isoform 1 (from UniProt P50990-1 1-548)
ruvB-like 1 isoform 2 (from UniProt Q9Y265-2 1-386)
Heat shock 70 kDa protein 1A (from UniProt P0DMV8-1 1-641)
Tubulin alpha-1A chain isoform 2 (from UniProt Q71U36-2 1-416)
Tubulin beta-6 chain isoform 1 (from UniProt Q9BUF5 1-446)
T-complex protein 1 subunit epsilon isoform a (from UniProt P48643-1 1-541)
Tubulin alpha-1B chain (from UniProt P68363-1 1-451)
Tubulin beta-2B chain (from UniProt Q9BVA1 1-445)
T-complex protein 1 subunit zeta isoform a (from UniProt P40227-1 1-531)
Tubulin beta chain isoform b (from UniProt P07437 1-444)
Tubulin beta-4B chain (from UniProt P68371 1-445)
Tubulin beta-3 chain isoform 1 (from UniProt Q13509-1 1-450)
B1
B2
B3
B4
